Test in all cases: FRET or BRET
Experiment [1] has as its target CysLTR2-GFP10-1D4 wt (human) (UniProt Q9NS75).
The target is the same in experiment [2]. The source holds these as a separate data set.
Experiment [3] shares this target. The source holds these as a separate data set.
In experiment [4] the target is T1, CysLTR2-GFP10-1D4 L129Q (human, UniProt Q9NS75 1-346, L129Q).
T1 sequence (looked up): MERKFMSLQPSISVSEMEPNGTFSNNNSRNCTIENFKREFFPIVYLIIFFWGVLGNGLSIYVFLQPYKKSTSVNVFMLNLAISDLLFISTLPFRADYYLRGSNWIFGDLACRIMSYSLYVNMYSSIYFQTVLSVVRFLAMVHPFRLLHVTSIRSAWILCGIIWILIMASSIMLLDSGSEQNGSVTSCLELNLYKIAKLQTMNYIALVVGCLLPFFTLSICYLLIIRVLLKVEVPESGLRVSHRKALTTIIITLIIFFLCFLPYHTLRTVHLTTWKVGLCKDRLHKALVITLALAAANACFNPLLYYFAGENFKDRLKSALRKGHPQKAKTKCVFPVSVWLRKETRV

Read-outs that look alike come from different tables or passages of the source. Results are given in words; binding and its absence hold for the method and conditions named. In cells and extracts the contact can be indirect. Some entries that bind do so weakly or less than the wild type.

“β-Arrestin2-RLuc3 (from UniProt P32121 1-409)”: the binding result in experiment [1] and in experiment [2] was “binds” in each case.

B1: β-Arrestin1-RLuc3 (natural protein, UniProt P49407 1-418, looked up)
chain: MGDKGTRVFKKASPNGKLTVYLGKRDFVDHIDLVDPVDGVVLVDPEYLKERRVYVTLTCAFRYGREDLDVLGLTFRKDLFVANVQSFPPAPEDKKPLTRLQERLIKKLGEHAYPFTFEIPPNLPCSVTLQPGPEDTGKACGVDYEVKAFCAENLEEKIHKRNSVRLVIRKVQYAPERPGPQPTAETTRQFLMSDKPLHLEASLDKEIYYHGEPISVNVHVTNNTNKTVKKIKISVRQYADICLFNTAQYKCPVAMEEADDTVAPSSTFCKVYTLTPFLANNREKRGLALDGKLKHEDTNLASSTLLREGANREILGIIVSYKVKVKLVVSRGGLLGDLASSDVAVELPFTLMHPKPKEEPPHREVPENETPVDTNLIELDTNDDDIVFEDFARQRLKGMKDDKEEEEDGTGSPQLNNR
B1: the binding result in experiment [1] is listed as “binds”; in experiment [3] it was “binds”; in experiment [2], “binds”; in experiment [4], “binds weakly”.

The record behind these values is paper doi:10.1101/663153 (bioRxiv, 2019).
